Patent publication US20060281078, “Human fast-1 gene” (published 2006)

Molecular target: T1, hFAST-1 forkhead domain (FAST-FH) (Homo sapiens) (UniProt O75593)
T1 sequence (limits assumed): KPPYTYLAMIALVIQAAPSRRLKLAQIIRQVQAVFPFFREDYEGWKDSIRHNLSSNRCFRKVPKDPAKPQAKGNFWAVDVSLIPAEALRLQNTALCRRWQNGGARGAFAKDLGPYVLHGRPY
Experiment: EMSA
Conditions: bound less well than full length; purified recombinant protein; protein details: GST fusion; label: 32P

## CGGATTGTGTATTGGCTGTAC (double strand) [FBE]
  binding result: binds more weakly

The comparison behind a weaker result is the experiment's own reference, which may not be listed here. Where a protein sequence is shown, tags need not be part of it.
